Experimental data published in patent publication US11834451B2 (priority 2021, dated 2023).
Some results come without the dose or concentration used.

Test system: EV-D68
Assay type: cell-based, enterovirus D68 (EV-D68)

SMILES	SI50, Anti-EV-D68 US/KY/14-18953	SI50, EV-D68 US/IL/14-18952 (Clade B2)	SI50, EV-D68 US/IL/14-18956 (Clade B2)	SI50, EV-D68 US/KY/14-18953 (Clade D)	SI50, EV-D68 US/MO/14-18947 (Clade B1)	SI50, EV-D68 US/MO/14-18949 (Clade B1)
CNCCCNC(=O)c1cc(C2CC2)nc2c1cnn2C(C)C [Compound 7m, 6-cyclopropyl-N-[3-(methylamino)propyl]-1-(propan-2-yl)-1H-pyrazolo[3,4-b]pyridine-4-carboxamide]	EC50 = 1.7 ± 0.2 CC50 = 183.0 ± 20.1 SI50 = 107.6					
Cc1cc(C(=O)NCCN)c2cnn(C(C)C)c2n1 [Compound 12e, N-(2-aminoethyl)-6-methyl-1-(propan-2-yl)-1H-pyrazolo[3,4-b]pyridine-4-carboxamide]	EC50 = 4.7 ± 0.6 CC50 >300.0 SI50 >63.8					
CCCn1ncc2c(C(=O)NCCN(C)C)cc(C3CC3)nc21 [Compound 20, 6-cyclopropyl-N-[2-(dimethylamino)ethyl]-1-propyl-1H-pyrazolo[3,4-b]pyridine-4-carboxamide]	EC50 = 1.2 ± 0.2 CC50 = 57.7 ± 10.1 SI50 = 48.1					
CC(C)c1cc(C(=O)NCCO)c2cnn(C(C)C)c2n1 [Compound 10b, N-(2-hydroxyethyl)-1,6-bis(propan-2-yl)-1H-pyrazolo[3,4-b]pyridine-4-carboxamide]	EC50 = 9.8 ± 2.3 CC50 >100.0 SI50 >10.2					
CC(C)n1ncc2c(C(=O)NCCN)cc(C(C)(C)C)nc21 [Compound 11b, N-(2-aminoethyl)-6-tert-butyl-1-(propan-2-yl)-1H-pyrazolo[3,4-b]pyridine-4-carboxamide]	EC50 = 0.1 ± 0.1 CC50 = 24.6 ± 3.1 SI50 = 246.0					
CNCCNC(=O)c1cc(C2CC2)nc2c1cnn2C(C)C [Compound 7h, 6-cyclopropyl-N-[2-(methylamino)ethyl]-1-(propan-2-yl)-1H-pyrazolo[3,4-b]pyridine-4-carboxamide]	EC50 = 0.2 ± 0.1 CC50 = 236.3 ± 20.5 SI50 = 1183.0	SI50 = 1183	SI50 = 1183	SI50 = 1183	SI50 = 1183	SI50 = 1183
CCN(CC)CCNC(=O)c1cc(C2CC2)nc2c1cnn2C(C)C [Compound 7c, 6-cyclopropyl-N-[2-(diethylamino)ethyl]-1-(propan-2-yl)-1H-pyrazolo[3,4-b]pyridine-4-carboxamide]	EC50 = 0.4 ± 0.2 CC50 = 89.9 ± 10.8 SI50 = 224.8					
CNCCNC(=O)c1cc(C(C)C)nc2c1cnn2C(C)C [Compound 10d, N-[2-(methylamino)ethyl]-1,6-bis(propan-2-yl)-1H-pyrazolo[3,4-b]pyridine-4-carboxamide]	EC50 = 0.4 ± 0.2 CC50 >100.0 SI50 >250.0					
CC(C)n1ncc2c(C(=O)NCCN(C)C)cc(C(C)(C)C)nc21 [Compound 11a, 6-tert-butyl-N-[2-(dimethylamino)ethyl]-1-(propan-2-yl)-1H-pyrazolo[3,4-b]pyridine-4-carboxamide]	EC50 = 0.1 ± 0.0 CC50 = 31.4 ± 7.1 SI50 = 314.0					
CC(C)n1ncc2c(C(=O)NCCN3CCCC3)cc(C3CC3)nc21 [Compound 7b, 6-cyclopropyl-1-(propan-2-yl)-N-[2-(pyrrolidin-1-yl)ethyl]-1H-pyrazolo[3,4-b]pyridine-4-carboxamide]	EC50 = 0.1 ± 0.1 CC50 = 46.5 ± 3.0 SI50 = 465.0					
CC(C)n1ncc2c(C(=O)NC3CCN(C)C3)cc(C3CC3)nc21 (centres unmarked) [Compound 7g, 6-cyclopropyl-N-(1-methylpyrrolidin-3-yl)-1-(propan-2-yl)-1H-pyrazolo[3,4-b]pyridine-4-carboxamide]	EC50 = 0.1 ± 0.2 CC50 = 20.7 ± 1.9 SI50 = 207.0					
Cc1cc(C(=O)NC2CCN(C)C2)c2cnn(C(C)C)c2n1 (centres unmarked) [Compound 12b, 6-methyl-N-(1-methylpyrrolidin-3-yl)-1-(propan-2-yl)-1H-pyrazolo[3,4-b]pyridine-4-carboxamide]	EC50 = 1.8 ± 0.2 CC50 >300.0 SI50 >166.7					
CC(C)n1ncc2c(C(=O)NCCCN(C)C)cc(C3CC3)nc21 [Compound 7l, 6-cyclopropyl-N-[3-(dimethylamino)propyl]-1-(propan-2-yl)-1H-pyrazolo[3,4-b]pyridine-4-carboxamide]	EC50 = 1.2 ± 0.3 CC50 = 74.1 ± 2.5 SI50 = 61.8					
CNCCNC(=O)c1cc(C)nc2c1cnn2C(C)C [Compound 12d, 6-methyl-N-(methylamino)ethyl-1-(propan-2-yl)-1H-pyrazolo[3,4-b]pyridine-4-carboxamide]	EC50 = 2.3 ± 0.2 CC50 >300.0 SI50 >130.4					
CCN(CC)CCCNC(=O)c1cc(C2CC2)nc2c1cnn2C(C)C [Compound 7k, 6-cyclopropyl-N-[3-(diethylamino)propyl]-1-(propan-2-yl)-1H-pyrazolo[3,4-b]pyridine-4-carboxamide]	EC50 = 1.9 ± 0.2 CC50 = 43.8 ± 1.3 SI50 = 23.1					
CC(CN(C)C)NC(=O)c1cc(C(C)C)nc2c1cnn2C(C)C (centres unmarked) [Compound 10c, N-[1-(dimethylamino)propan-2-yl]-1,6-bis(propan-2-yl)-1H-pyrazolo[3,4-b]pyridine-4-carboxamide]	EC50 = 0.1 ± 0.0 CC50 >100.0 SI50 >1000.0					

SMILES	SI50, Anti-EV-D68 US/KY/14-18953	SI50, EV-D68 US/IL/14-18952 (Clade B2)	SI50, EV-D68 US/IL/14-18956 (Clade B2)	SI50, EV-D68 US/KY/14-18953 (Clade D)	SI50, EV-D68 US/MO/14-18947 (Clade B1)	SI50, EV-D68 US/MO/14-18949 (Clade B1)
CCn1ncc2c(C(=O)NCCN(C)C)cc(C)nc21 [Compound 15a, N-[2-(dimethylamino)ethyl]-1-ethyl-6-methyl-1H-pyrazolo[3,4-b]pyridine-4-carboxamide]	EC50 = 18.3 ± 0.5 CC50 >300 SI50 >16.4					
CCC(C)n1ncc2c(C(=O)NCCN(C)C)cc(C3CC3)nc21 (centres unmarked) [Compound 21, 1-(butan-2-yl)-6-cyclopropyl-N-[2-(dimethylamino)ethyl]-1H-pyrazolo[3,4-b]pyridine-4-carboxamide]	EC50 = 0.2 ± 0.1 CC50 = 40.7 ± 2.8 SI50 = 203.5					
CC(C1CC1)n1ncc2c(C(=O)NCCN(C)C)cc(C3CC3)nc21 (centres unmarked) [Compound 22, 6-cyclopropyl-1-(1-cyclopropylethyl)-N-[2-(dimethylamino)ethyl]-1H-pyrazolo[3,4-b]pyridine-4-carboxamide]	EC50 = 0.7 ± 0.2 CC50 = 28.4 ± 2.3 SI50 = 40.6					
CCCn1ncc2c(C(=O)NCCN(C)C)cc(C)nc21 [Compound 14, N-[2-(dimethylamino)ethyl]-6-methyl-1-propyl-1H-pyrazolo[3,4-b]pyridine-4-carboxamide]	EC50 = 48.4 ± 2.2 CC50 = 218.6 ± 25.3 SI50 = 4.5					
CC(C)n1ncc2c(C(=O)NCCN)cc(C3CC3)nc21 [Compound 7i, N-(2-aminoethyl)-6-cyclopropyl-1-(propan-2-yl)-1H-pyrazolo[3,4-b]pyridine-4-carboxamide]	EC50 = 0.4 ± 0.2 CC50 = 259.3 ± 11.3 SI50 = 648.3					
Cc1cc(C(=O)NCCN(C)C)c2cnn(C(C)C)c2n1 [Compound 12a, N-[2-(dimethylamino)ethyl]-6-methyl-1-(propan-2-yl)-1H-pyrazolo[3,4-b]pyridine-4-carboxamide]	EC50 = 0.4 ± 0.2 CC50 = 112.3 ± 19.6 SI50 = 280.8					
CC(C)n1ncc2c(C(=O)NC3CNC3)cc(C3CC3)nc21 [Compound 7e, N-(azetidin-3-yl)-6-cyclopropyl-1-(propan-2-yl)-1H-pyrazolo[3,4-b]pyridine-4-carboxamide]	EC50 = 1.4 ± 0.1 CC50 = 91.6 ± 22.1 SI50 = 65.4					
CNCCNC(=O)c1cc(C2CC2)nc2c1c(C)nn2C(C)(C)C [Compound 18b, 1-tert-butyl-6-cyclopropyl-3-methyl-N-[2-(methylamino)ethyl]-1H-pyrazolo[3,4-b]pyridine-4-carboxamide]	EC50 = 1.1 ± 0.5 CC50 = 31.9 ± 8.2 SI50 = 29.0					
CC(CN)NC(=O)c1cc(C2CC2)nc2c1cnn2C(C)C (centres unmarked) [Compound 7j, N-(1-aminopropan-2-yl)-6-cyclopropyl-1-(propan-2-yl)-1H-pyrazolo[3,4-b]pyridine-4-carboxamide]	EC50 = 0.3 ± 0.1 CC50 = 112.9 ± 8.7 SI50 = 376.3					
Cc1cc(C(=O)NCCN(C)C)c2cnn(C3CCCC3)c2n1 [Compound 13, 1-cyclopentyl-N-[2-(dimethylamino)ethyl]-6-methyl-1H-pyrazolo[3,4-b]pyridine-4-carboxamide]	EC50 = 11.1 ± 0.3 CC50 = 88.4 ± 18.5 SI50 = 8.0					
CCn1ncc2c(C(=O)NCCNC)cc(C)nc21 [Compound 15b, 1-ethyl-6-methyl-N-[2-(methylamino)ethyl]-1H-pyrazolo[3,4-b]pyridine-4-carboxamide]	EC50 = 58.4 ± 1.9 CC50 >300 SI50 >5.1					
Cc1cc(C(=O)NCCN(C)C)c2c(C)nn(C(C)(C)C)c2n1 [Compound 19, 1-tert-butyl-N-[2-(dimethylamino)ethyl]-3,6-dimethyl-1H-pyrazolo[3,4-b]pyridine-4-carboxamide]	EC50 = 1.0 ± 0.1 CC50 = 116.6 ± 16.1 SI50 = 116.6	SI50 = 166.6	SI50 = 291.5	SI50 = 116.6	SI50 = 291.5	SI50 = 166.6
Cc1nn(C(C)(C)C)c2nc(C3CC3)cc(C(=O)NCCN(C)C)c12 [Compound 18a, 1-tert-butyl-6-cyclopropyl-N-[2-(dimethylamino)ethyl]-3-methyl-1H-pyrazolo[3,4-b]pyridine-4-carboxamide]	EC50 = 0.8 ± 0.2 CC50 = 45.2 ± 27.6 SI50 = 56.5					
CCn1ncc2c(C(=O)NCCN(C)C)cc(C3CC3)nc21 [Compound 16, 6-cyclopropyl-N-[2-(dimethylamino)ethyl]-1-ethyl-1H-pyrazolo[3,4-b]pyridine-4-carboxamide]	EC50 = 1.7 ± 0.2 CC50 = 263.2 ± 21.1 SI50 = 154.8					
CC(CN)NC(=O)c1cc(C(C)C)nc2c1cnn2C(C)C (centres unmarked) [Compound 10f, N-(1-aminopropan-2-yl)-1,6-bis(propan-2-yl)-1H-pyrazolo[3,4-b]pyridine-4-carboxamide]	EC50 = 0.4 ± 0.3 CC50 = 118.1 ± 15.4 SI50 = 295.3					
